Laboratory results reported in patent US9517222B2, “Method for the treatment of senile dementia of the Alzheimer's type” (Phenomenome Discoveries Inc., priority 2007, dated 2016).
Where no unit stands, none is given here, and values compare only within one read-out.

Legend:
[1] = Serum ethanolamine phospholipid levels in human cohorts (dementia severity, post-mortem pathology, age) by flow-injection MS/MS
[2] = Serum ethanolamine phospholipid ratios to PtdEt 16:0/18:0 (M01) in human cohorts
[3] = serum, females, post mortem SDAT
[4] = serum, females, post mortem control

In the case of CCCCC/C=C\C/C=C\CCCCCCCC(=O)OC(CO/C=C\CCCCCCCCCCCCCC)COP(=O)(O)OCCN (centres unmarked) [Metabolite M16, Plasmenyl 16:0/18:2], the “Ratio of serum levels” value ([1]; AD, All to CN, Male) was 0.778, the “Ratio of serum levels” value ([1]; ADAS 5-19 to CN, Male) was 0.802 and the “Ratio of serum levels” value ([1]; ADAS 20-39 to 5-19, Male) was 0.947. For the same compound, the “Ratio of serum levels” value ([1]; ADAS 20-39 to CN, Male) was 0.759, the “Ratio of serum levels” value ([1]; ADAS 40-70 to 5-19, Male) was 0.895 and the “Ratio of serum levels” value ([1]; ADAS 40-70 to 20-39, Male) was 0.946. The “Ratio of serum levels” value ([1]; ADAS 40-70 to CN, Male) was 0.718, the “Serum level, Mean” value ([1]; Cognitive Normal, Female) was 0.250 and the “Average serum level, Mean” value ([1]; Cognitive Normal, Male) was 0.266. For the same compound, the “Serum level, Mean” value ([1]; Post Mortem Ctl, Male) was 0.092, the “Serum level, Mean” value ([1]; Post Mortem SDAT Male) was 0.053 and the “Ratio of serum levels” value ([1]; Post mortem SDAT vs Control, Male) was 0.570. The “Serum level, Mean” value ([1]; SDAT, ADAS 5-19, Female) was 0.214, the “Average serum level, Mean” value ([1]; SDAT, ADAS 5-19, Male) was 0.213 and the “Serum level, Mean” value ([1]; SDAT, ADAS 20-39, Female) was 0.201. For the same compound, the “Average serum level, Mean” value ([1]; SDAT, ADAS 20-39, Male) was 0.202, the “Serum level, Mean” value ([1]; SDAT, ADAS 40-70, Female) was 0.164 and the “Average serum level, Mean” value ([1]; SDAT, ADAS 40-70, Male) was 0.191. For the same compound, the “Serum level, Mean” value ([1]; SDAT_all, Female) was 0.192, the “Average serum level, Mean” value ([1]; SDAT_all, Male) was 0.207 and the “Ratio, ADAS 5-19 to CN, Female” value ([1]; serum level ratio, females, ADAS 5-19 vs CN) was 0.853. For the same compound, the “Ratio, ADAS 20-39 to 5-19, Female” value ([1]; serum level ratio, females, ADAS 20-39 vs ADAS 5-19) was 0.940, the “Ratio, ADAS 20-39 to CN, Female” value ([1]; serum level ratio, females, ADAS 20-39 vs CN) was 0.801 and the “Ratio, ADAS 40-70 to 5-19, Female” value ([1]; serum level ratio, females, ADAS 40-70 vs ADAS 5-19) was 0.769. The “Ratio, ADAS 40-70 to 20-39, Female” value ([1]; serum level ratio, females, ADAS 40-70 vs ADAS 20-39) was 0.819, the “Ratio, ADAS 40-70 to CN, Female” value ([1]; serum level ratio, females, ADAS 40-70 vs CN) was 0.656 and the “Ratio, 50-59 vs. 40-49, Female” value ([1]; serum level ratio, females, age 50-59 vs 40-49) was 0.846. For the same compound, the “Ratio, 60-69 vs. 40-49, Female” value ([1]; serum level ratio, females, age 60-69 vs 40-49) was 0.786, the “Ratio, 70+ vs. 40-49, Female” value ([1]; serum level ratio, females, age 70+ vs 40-49) was 0.867 and the “Ratio, AD, All to CN, Female” value ([1]; serum level ratio, females, all AD vs cognitively normal) was 0.765. For the same compound, the “Ratio, Autopsy AD vs. Control, Female” value ([1]; serum level ratio, females, autopsy AD vs control) was 0.594, the “Ratio, 50-59 vs. 40-49, Male” value ([1]; serum level ratio, males, age 50-59 vs 40-49) was 1.109 and the “Ratio, 60-69 vs. 40-49, Male” value ([1]; serum level ratio, males, age 60-69 vs 40-49) was 1.013. The “Ratio, 70+ vs. 40-49, Male” value ([1]; serum level ratio, males, age 70+ vs 40-49) was 1.118, the “Mean serum level, Age Ctl, 30-39, Female” value ([1]; serum, females, age 30-39) was 0.274 and the “Mean serum level, Age Ctl, 40-49, Female” value ([1]; serum, females, age 40-49) was 0.268. For the same compound, the “Mean serum level, Age Ctl, 50-59, Female” value ([1]; serum, females, age 50-59) was 0.226, the “Mean serum level, Age Ctl, 60-69, Female” value ([1]; serum, females, age 60-69) was 0.210 and the “Mean serum level, Age Ctl, 70+, Female” value ([1]; serum, females, age 70+) was 0.232. The “Mean serum level, Post Mortem SDAT, Female” value [1, 3] was 0.064, the “Mean serum level, Post Mortem Ctl, Female” value [1, 4] was 0.107 and the “Mean serum level, Age Ctl, 30-39, Male” value ([1]; serum, males, age 30-39) was 0.291. The “Mean serum level, Age Ctl, 40-49, Male” value ([1]; serum, males, age 40-49) was 0.220, the “Mean serum level, Age Ctl, 50-59, Male” value ([1]; serum, males, age 50-59) was 0.244 and the “Mean serum level, Age Ctl, 60-69, Male” value ([1]; serum, males, age 60-69) was 0.223. For the same compound, the “Mean serum level, Age Ctl, 70+, Male” value ([1]; serum, males, age 70+) was 0.246, the “Ratio of ethanolamine phospholipid ratios to M01 between cohorts” value (“Ratio … to M01 between cohorts” for short) ([2]; AD, All to CN, Male) was 0.747 and the “Ratio … to M01 between cohorts” value ([2]; ADAS 5-19 to CN, Male) was 0.774. For the same compound, the “Ratio … to M01 between cohorts” value ([2]; ADAS 20-39 to CN, Male) was 0.741, the “Ratio … to M01 between cohorts” value ([2]; ADAS 40-70 to CN, Male) was 0.704 and the “Average serum ethanolamine phospholipid ratio to M01, Mean” value ([2]; Cognitive Normal, Male, serum) was 2.398. For the same compound, the “Average serum ethanolamine phospholipid ratio to M01, Mean” value ([2]; SDAT, ADAS 5-19, Male, serum) was 1.856, the “Average serum ethanolamine phospholipid ratio to M01, Mean” value ([2]; SDAT, ADAS 20-39, Male, serum) was 1.777 and the “Average serum ethanolamine phospholipid ratio to M01, Mean” value ([2]; SDAT, ADAS 40-70, Male, serum) was 1.687. The “Average serum ethanolamine phospholipid ratio to M01, Mean” value ([2]; SDAT_all, Male, serum) was 1.790, the “Ethanolamine Phospholipid Ratio to M01, Mean, Age Ctl, 30-39, Female” value ([2]; human serum, females aged 30-39) was 2.739 and the “Ethanolamine Phospholipid Ratio to M01, Mean, Age Ctl, 40-49, Female” value ([2]; human serum, females aged 40-49) was 2.483. For the same compound, the “Ethanolamine Phospholipid Ratio to M01, Mean, Age Ctl, 50-59, Female” value ([2]; human serum, females aged 50-59) was 2.345, the “Ratio of Ethanolamine Phospholipid Ratio to M01, 50-59 vs. 40-49, Female” value ([2]; human serum, females aged 50-59 vs. females aged 40-49) was 0.944 and the “Ethanolamine Phospholipid Ratio to M01, Mean, Age Ctl, 60-69, Female” value ([2]; human serum, females aged 60-69) was 1.783. The “Ratio of Ethanolamine Phospholipid Ratio to M01, 60-69 vs. 40-49, Female” value ([2]; human serum, females aged 60-69 vs. females aged 40-49) was 0.718, the “Ethanolamine Phospholipid Ratio to M01, Mean, Age Ctl, 70+_Female” value ([2]; human serum, females aged 70+) was 1.964 and the “Ratio of Ethanolamine Phospholipid Ratio to M01, 70+ vs. 40-49, Female” value ([2]; human serum, females aged 70+ vs. females aged 40-49) was 0.791. The “Ratio of Ethanolamine Phospholipid Ratio to M01, 50-59 vs. 40-49, Male” value ([2]; human serum, males aged 50-59 vs. males aged 40-49) was 1.131, the “Ratio of Ethanolamine Phospholipid Ratio to M01, 60-69 vs. 40-49, Male” value ([2]; human serum, males aged 60-69 vs. males aged 40-49) was 0.880 and the “Ratio of Ethanolamine Phospholipid Ratio to M01, 70+ vs. 40-49, Male” value ([2]; human serum, males aged 70+ vs. males aged 40-49) was 0.951. The “Ratio of ethanolamine phospholipid ratio to M01, ADAS 5-19 to CN, Female” value ([2]; serum, females, ADAS 5-19 vs cognitive normal) was 0.901, the “Ratio of ethanolamine phospholipid ratio to M01, ADAS 20-39 to 5-19, Female” value ([2]; serum, females, ADAS 20-39 vs ADAS 5-19) was 0.956 and the “Ratio of ethanolamine phospholipid ratio to M01, ADAS 20-39 to CN, Female” value ([2]; serum, females, ADAS 20-39 vs cognitive normal) was 0.861. The “Ratio of ethanolamine phospholipid ratio to M01, ADAS 40-70 to 5-19, Female” value ([2]; serum, females, ADAS 40-70 vs ADAS 5-19) was 0.737, the “Ratio of ethanolamine phospholipid ratio to M01, ADAS 40-70 to 20-39, Female” value ([2]; serum, females, ADAS 40-70 vs ADAS 20-39) was 0.771 and the “Ratio of ethanolamine phospholipid ratio to M01, ADAS 40-70 to CN, Female” value ([2]; serum, females, ADAS 40-70 vs cognitive normal) was 0.664. The “Ethanolamine phospholipid ratio to M01, Mean, SDAT, ADAS 5-19, Female” value ([2]; serum, females, SDAT ADAS 5-19) was 1.994, the “Ethanolamine phospholipid ratio to M01, Mean, SDAT, ADAS 20-39, Female” value ([2]; serum, females, SDAT ADAS 20-39) was 1.906 and the “Ethanolamine phospholipid ratio to M01, Mean, SDAT, ADAS 40-70, Female” value ([2]; serum, females, SDAT ADAS 40-70) was 1.470. For the same compound, the “Ratio of ethanolamine phospholipid ratio to M01, AD, All to CN, Female” value ([2]; serum, females, all AD vs cognitive normal) was 0.804, the “Ethanolamine phospholipid ratio to M01, Mean, SDAT_all Female” value ([2]; serum, females, all SDAT) was 1.780 and the “Ratio of ethanolamine phospholipid ratio to M01, Autopsy AD vs. Control, Female” value ([2]; serum, females, autopsy AD vs post mortem control) was 0.895. The “Ethanolamine phospholipid ratio to M01, Mean, Cognitive Normal, Female” value ([2]; serum, females, cognitive normal) was 2.214, the “Ethanolamine phospholipid ratio to M01, Mean, Post Mortem SDAT Female” value [2, 3] was 0.599 and the “Ethanolamine phospholipid ratio to M01, Mean, Post Mortem Ctl, Female” value [2, 4] was 0.670. For the same compound, the “Ratio of ethanolamine phospholipid ratio to M01, ADAS 20-39 to 5-19, Male” value ([2]; serum, males, SDAT ADAS 20-39 vs ADAS 5-19) was 0.957, the “Ratio of ethanolamine phospholipid ratio to M01, ADAS 40-70 to 5-19, Male” value ([2]; serum, males, SDAT ADAS 40-70 vs ADAS 5-19) was 0.909 and the “Ratio of ethanolamine phospholipid ratio to M01, ADAS 40-70 to 20-39, Male” value ([2]; serum, males, SDAT ADAS 40-70 vs ADAS 20-39) was 0.950. For the same compound, the “Ethanolamine phospholipid ratio to M01, Mean, Age Ctl, 30-39, Male” value ([2]; serum, males, age control 30-39) was 2.429, the “Ethanolamine phospholipid ratio to M01, Mean, Age Ctl, 40-49, Male” value ([2]; serum, males, age control 40-49) was 2.020 and the “Ethanolamine phospholipid ratio to M01, Mean, Age Ctl, 50-59, Male” value ([2]; serum, males, age control 50-59) was 2.284. For the same compound, the “Ethanolamine phospholipid ratio to M01, Mean, Age Ctl, 60-69, Male” value ([2]; serum, males, age control 60-69) was 1.778, the “Ethanolamine phospholipid ratio to M01, Mean, Age Ctl, 70+_Male” value ([2]; serum, males, age control 70+) was 1.922 and the “Ethanolamine phospholipid ratio to M01, Mean, Post Mortem SDAT Male” value ([2]; serum, males, post mortem SDAT) was 0.627. For the same compound, the “Ratio of ethanolamine phospholipid ratio to M01, SDAT vs Control (post mortem, males)” value ([2]; serum, males, post mortem SDAT vs post mortem control) was 0.791 and the “Ethanolamine phospholipid ratio to M01, Mean, Post Mortem Ctl, Male” value ([2]; serum, males, post mortem control) was 0.792.
